Results: PubChem BioAssay AID248 (DTP/NCI, 2004)
The list does not hold the whole screen: it gathers tests that were run many times, whatever their T/C, doses with no T/C, and many T/C values between a quarter and a half above the control. Other doses and runs of a compound stand elsewhere. T/C: endpoint of the treated group in % of that of the vehicle group. Some doses have a count of surviving animals in place of a T/C: the source holds a T/C of zero for them, seemingly a mark for toxic or unscored doses. Some doses without a T/C left all or most animals alive at the check, yet need not have been tolerated: the source hardly ever lists a survival T/C far under the control, and the zero likely stands for such cases as well. Survivors were counted at the toxicity check, usually on the fifth day, unless a day is given; later deaths do not show. Schedule codes are those of the source, taken here to give the interval after Q, in days (D) or hours (H), and the number of doses after X. Where survival is the endpoint, the PubChem record calls one and a half times the control and up active, and a quarter to a half above the control has no call in these data; cut-offs in other NCI protocols can differ.

System: L1210 leukemia ip in BDF1 mice, survival T/C
Assay: NCI In Vivo Anticancer Drug Screen. Data for tumor model L1210 Leukemia (intraperitoneal) in B6D2F1 (BDF1) mice
Conditions: T/C endpoint: mean survival time, higher T/C = longer survival
[1] = dose: 400.0 mg/kg/injection, schedule: Q04DX003 (ip), vehicle: saline
[2] = dose: 200.0 mg/kg/injection, schedule: Q01DX001 (ip), vehicle: saline
[3] = dose: 400.0 mg/kg/injection, schedule: Q01DX001 (ip), vehicle: saline
[4] = dose: 400.0 mg/kg/injection, schedule: Q04DX003 (ip), vehicle: saline with Tween-80
[5] = dose: 100.0 mg/kg/injection, schedule: Q01DX001 (ip), vehicle: carboxymethylcellulose (CMC)

In the case of CCN=C(c1ccc(NC(=O)c2ccc(C(=O)Nc3ccc(C(=NCC)N(CC)C(=O)NCC(=O)OCC)cc3)cc2)cc1)N(CC)C(=O)NCC(=O)OCC, the T/C (dose: 6.25 mg/kg/injection, schedule: Q01DX015 (ip), vehicle: methylcellulose (MC)) is reported as 129 % of control, the survivor count (dose: 50.0 mg/kg/injection, schedule: Q01DX015 (ip), vehicle: methylcellulose (MC)) is reported as 0 of 6 and the survivor count (dose: 100.0 mg/kg/injection, schedule: Q01DX015 (ip), vehicle: methylcellulose (MC)) is reported as 0 of 6. For the same compound, the survivor count (dose: 200.0 mg/kg/injection, schedule: Q01DX015 (ip), vehicle: methylcellulose (MC)) was 0 of 6 and the survivor count (dose: 400.0 mg/kg/injection, schedule: Q01DX015 (ip), vehicle: methylcellulose (MC)) was 0 of 6.
With C[N+]1(C)C2CSCC1CC(O)C2 (stereo not drawn) the survivor count (dose: 200.0 mg/kg/injection, schedule: Q04DX003 (ip), vehicle: saline) was 1 of 6 and the survivor count [1] was 0 of 6.
For Cc1cccc(NC(=O)CCc2ccc(Cl)cc2)n1, the survivor count [2] was 3 of 6 and the survivor count [3] was 0 of 6.
In the case of CN(C)C=C1C(=O)c2ccccc2C1=O, the survivor count [4] is reported as 4 of 6.
O=C(C[N+]12CC=C(CO)C1C(O)CC2)c1ccc(Br)cc1 (stereo not drawn) was tested, and the survivor count [3] was 3 of 6.
With O=C(CCN1CC1)OCC1CC1 the survivor count (dose: 40.0 mg/kg/injection, schedule: Q01DX009 (ip), vehicle: Klucel (hydroxypropylcellulose) (HPC)) was 6 of 6, the survivor count (dose: 80.0 mg/kg/injection, schedule: Q01DX009 (ip), vehicle: Klucel (hydroxypropylcellulose) (HPC)) was 4 of 6 and the survivor count (dose: 100.0 mg/kg/injection, schedule: Q04DX003 (ip), vehicle: Klucel (hydroxypropylcellulose) (HPC)) was 6 of 6. The survivor count (dose: 200.0 mg/kg/injection, schedule: Q04DX003 (ip), vehicle: Klucel (hydroxypropylcellulose) (HPC)) was 1 of 6 and the survivor count (dose: 400.0 mg/kg/injection, schedule: Q04DX003 (ip), vehicle: Klucel (hydroxypropylcellulose) (HPC)) was 0 of 6.
In the case of N#CCOC(=O)c1ccccc1, the survivor count (dose: 75.0 mg/kg/injection, schedule: Q01DX001 (ip), vehicle: saline) is reported as 0 of 6, the survivor count (dose: 150.0 mg/kg/injection, schedule: Q01DX001 (ip), vehicle: saline) is reported as 0 of 6 and the survivor count (dose: 300.0 mg/kg/injection, schedule: Q01DX001 (ip), vehicle: saline) is reported as 0 of 6.
For CSc1ncnc2c1ncn2N(CCCCN=C=S)C(C)=O, the survivor count (dose: 100.0 mg/kg/injection, schedule: Q01DX001 (ip), vehicle: saline with Tween-80) was 0 of 6, the survivor count (dose: 200.0 mg/kg/injection, schedule: Q01DX001 (ip), vehicle: saline with Tween-80) was 0 of 6 and the survivor count (dose: 400.0 mg/kg/injection, schedule: Q01DX001 (ip), vehicle: saline with Tween-80) was 0 of 6.
CCSc1ncnc2nc(C)[nH]c12 was tested, and the survivor count [3] was 3 of 6.
With CCC1(c2ccccc2)C(=O)NC(=S)N(C)C1=O (stereo not drawn) the survivor count (dose: 300.0 mg/kg/injection, schedule: Q01DX001 (ip), vehicle: other) was 0 of 6.
Nc1ccc(NC(=O)C(=O)O)cc1 was tested, and the survivor count [4] was 5 of 6.
In the case of O=C(CN1CCCCC1)N1CCN(C(=O)CN2CCCCC2)CC1, the T/C [5] is reported as 138 % of control, the survivor count [5] is reported as 4 of 4 and the survivor count (dose: 150.0 mg/kg/injection, schedule: Q01DX001 (ip), vehicle: carboxymethylcellulose (CMC)) is reported as 3 of 4.
In the case of CCCCNCC#N, the survivor count (dose: 100.0 mg/kg/injection, schedule: Q01DX001 (ip), vehicle: saline) is reported as 1 of 4, the survivor count [2] is reported as 0 of 4 and the survivor count [3] is reported as 0 of 4.
FCc1nc2nc(Cl)c(Cl)nc2[nH]1 was tested, and the survivor count (dose: 100.0 mg/kg/injection, schedule: Q01DX009 (ip), vehicle: saline) was 4 of 6, the survivor count (dose: 200.0 mg/kg/injection, schedule: Q01DX009 (ip), vehicle: saline) was 0 of 6 and the survivor count (dose: 300.0 mg/kg/injection, schedule: Q01DX009 (ip), vehicle: saline) was 0 of 6. The survivor count [1] was 5 of 6.
CCOC(=O)c1cnc(C)nc1Nc1ccccc1Cl was tested, and the survivor count (dose: 100.0 mg/kg/injection, schedule: Q04DX003 (ip), vehicle: saline) was 1 of 6 and the survivor count [1] was 0 of 6.
In the case of CC1(C)C2CCC1(C)C(Oc1ccccc1)C2 (stereo not drawn), the survivor count (dose: 400.0 mg/kg/injection, schedule: Q01DX009 (ip), vehicle: saline with Tween-80) is reported as 6 of 6.
For COC(=O)C12OCC34C(CC5C(C)=C(O)C(=O)CC5(C)C3C(O)C1O)OC(=O)C(OC(=O)/C=C(\C)C(C)(C)O)C24 (stereo not drawn), the T/C (dose: 0.12 mg/kg/injection, schedule: Q01DX009 (ip), vehicle: saline with Tween-80) was 126 % of control and the T/C (dose: 0.25 mg/kg/injection, schedule: Q01DX009 (ip), vehicle: saline with Tween-80) was 129 % of control.
In the case of O=C(O)/C=C/c1nc2ccccc2c(=O)[nH]1, the survivor count (dose: 200.0 mg/kg/injection, schedule: Q01DX009 (ip), vehicle: Klucel (hydroxypropylcellulose) (HPC)) is reported as 3 of 3.
In the case of O=C(C[n+]1cccc(/C=N\O)c1)c1ccc(-c2ccc(C(=O)C[n+]3cccc(/C=N\O)c3)cc2)cc1, the survivor count (dose: 3.0 mg/kg/injection, schedule: Q01DX009 (ip), vehicle: Klucel (hydroxypropylcellulose) (HPC)) is reported as 3 of 3, the T/C (dose: 6.0 mg/kg/injection, schedule: Q01DX009 (ip), vehicle: Klucel (hydroxypropylcellulose) (HPC)) is reported as 129 % of control and the survivor count (dose: 25.0 mg/kg/injection, schedule: Q01DX009 (ip), vehicle: Klucel (hydroxypropylcellulose) (HPC)) is reported as 1 of 3. The survivor count (dose: 50.0 mg/kg/injection, schedule: Q01DX009 (ip), vehicle: Klucel (hydroxypropylcellulose) (HPC)) was 0 of 3, the survivor count (dose: 100.0 mg/kg/injection, schedule: Q04DX002 (ip), vehicle: Klucel (hydroxypropylcellulose) (HPC)) was 0 of 3 and the survivor count (dose: 200.0 mg/kg/injection, schedule: Q04DX002 (ip), vehicle: Klucel (hydroxypropylcellulose) (HPC)) was 0 of 3. For the same compound, the survivor count (dose: 400.0 mg/kg/injection, schedule: Q04DX002 (ip), vehicle: Klucel (hydroxypropylcellulose) (HPC)) was 0 of 3.
